Reference: PubChem BioAssay AID1159584 (Peter MacCallum Cancer Centre, 2016)

Assay: 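Genes that CDH1-null MCF10A cells selectively depend on to survive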 (primary screen)
System: human MCF10A breast epithelial cells, parental and CDH1-null
Knock-down reagent: siRNA against human genes
Measurement: 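Cell viability by CellTiter-Glo ATP luminescence, each line scaled to the mean of mock wells across plates, then CDH1-null over parental ratio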
Reading the numbers: CDH1-null / parental viability ratio: higher = CDH1-null cells survive relatively better than parental; CDH1-null viability vs mock: higher = more viable CDH1-null cells; parental viability vs mock: higher = more viable parental cells
Shown is one part, drawn at random, of about 18,000 reagents tested. Not stated in the record: the amount of reagent, the time to read-out.

| gene knocked down | PubChem SID | CDH1-null / parental viability ratio | CDH1-null viability vs mock (fraction of mock) | parental viability vs mock (fraction of mock) |
| --- | --- | --- | --- | --- |
| C1S (complement C1s) | SID134311223 | 1.06 | 0.91 | 0.86 |
| WARS2 (tryptophanyl tRNA synthetase 2, mitochondrial) | SID134314587 | 1.12 | 1.12 | 1 |
| SPEM2 (SPEM family member 2) | SID152150033 | 1 | 1 | 1 |
| EPHB3 (EPH receptor B3) | SID56478503 | 0.75 | 0.78 | 1.04 |
| KRT6B (keratin 6B) | SID152155872 | 1.2 | 1.04 | 0.87 |
| TRMT9B (tRNA methyltransferase 9B (putative)) | SID152151036 | 0.73 | 0.35 | 0.48 |
| EPB41 (erythrocyte membrane protein band 4.1) | SID134310002 | 1.03 | 0.8 | 0.78 |
| NECTIN4 (nectin cell adhesion molecule 4) | SID135620808 | 0.77 | 0.49 | 0.64 |
| MC2R (melanocortin 2 receptor) | SID135621047 | 0.75 | 0.76 | 1.02 |
| CPAP (centrosome assembly and centriole elongation protein) | SID152150476 | 0.98 | 0.49 | 0.5 |
| ELMOD2 (ELMO domain containing 2) | SID134320114 | 1.03 | 0.74 | 0.72 |
| TMPRSS12 (transmembrane serine protease 12) | SID152149425 | 0.91 | 0.95 | 1.04 |
| ITGA2 (integrin subunit alpha 2) | SID152150596 | 0.86 | 0.67 | 0.78 |
| MXRA7 (matrix remodeling associated 7) | SID152153262 | 1.08 | 0.57 | 0.53 |
| PRDM14 (PR/SET domain 14) | SID152156326 | 0.82 | 0.54 | 0.66 |
| ARMC9 (armadillo repeat containing 9) | SID135623444 | 1.1 | 0.92 | 0.84 |
| OR4D6 (olfactory receptor family 4 subfamily D member 6) | SID152155320 | 1.67 | 0.4 | 0.24 |
| ATP13A3 (ATPase 13A3) | SID152151932 | 0.96 | 0.86 | 0.9 |
| TXLNB (taxilin beta) | SID152149656 | 0.87 | 0.82 | 0.94 |
| DRD5 (dopamine receptor D5) | SID134310928 | 0.61 | 0.46 | 0.76 |
| TYROBP (transmembrane immune signaling adaptor TYROBP) | SID135622347 | 1.02 | 0.85 | 0.83 |
| CIRSR (corepressor of RBPJ and splicing regulator) | SID134320236 | 1.33 | 0.64 | 0.48 |
| TRIM17 (tripartite motif containing 17) | SID152154923 | 1.01 | 0.92 | 0.91 |
| TMEM263 (transmembrane protein 263) | SID134319521 | 0.76 | 0.64 | 0.84 |
| RMI2 (RecQ mediated genome instability 2) | SID135622991 | 0.9 | 0.76 | 0.84 |
| PDCD11 (programmed cell death 11) | SID152148210 | 1.09 | 0.62 | 0.57 |
| RPS6KA2 (ribosomal protein S6 kinase A2) | SID135620862 | 0.98 | 0.55 | 0.56 |
| CNTNAP5 (contactin associated protein family member 5) | SID134315299 | 1 | 0.82 | 0.82 |
| SCAF4 (SR-related CTD associated factor 4) | SID135625083 | 0.92 | 0.94 | 1.02 |
| SIX6 (SIX homeobox 6) | SID134323309 | 1 | 0.57 | 0.57 |
| CD99 (CD99 molecule (Xg blood group)) | SID135623113 | 0.77 | 0.54 | 0.7 |
| GALR2 (galanin receptor 2) | SID134310287 | 0.74 | 0.78 | 1.05 |
| GPAT3 (glycerol-3-phosphate acyltransferase 3) | SID134314866 | 1.05 | 0.84 | 0.8 |
| KIR3DL3 | SID152155263 | 0.97 | 0.72 | 0.74 |
| SH2D2A (SH2 domain containing 2A) | SID134321759 | 1.17 | 0.98 | 0.84 |
| GPD2 (glycerol-3-phosphate dehydrogenase 2) | SID152152999 | 1.13 | 1.15 | 1.02 |
| PHYH (phytanoyl-CoA 2-hydroxylase) | SID135622280 | 1.04 | 1.08 | 1.04 |
| ZNF566 (zinc finger protein 566) | SID152148980 | 1.04 | 0.86 | 0.83 |
| SCML1 (Scm polycomb group protein like 1) | SID152155676 | 0.87 | 0.71 | 0.82 |
| NEU4 (neuraminidase 4) | SID134317494 | 1.04 | 0.99 | 0.95 |
| VAPA (VAMP associated protein A) | SID152155458 | 1.04 | 0.76 | 0.73 |
| GNAQ (G protein subunit alpha q) | SID134313429 | 1.29 | 0.98 | 0.76 |
| DNAJC13 (DnaJ heat shock protein family (Hsp40) member C13) | SID152154625 | 1.05 | 0.99 | 0.94 |
| ORM1 (orosomucoid 1) | SID134313133 | 0.97 | 0.72 | 0.74 |
| UVRAG (UV radiation resistance associated) | SID135622953 | 0.84 | 0.79 | 0.94 |
| CLSTN3 (calsyntenin 3) | SID152148171 | 0.54 | 0.44 | 0.82 |

7 neighbouring records from above:
| gene knocked down | PubChem SID | CDH1-null / parental viability ratio | CDH1-null viability vs mock (fraction of mock) | parental viability vs mock (fraction of mock) |
| --- | --- | --- | --- | --- |
| NECTIN4 (nectin cell adhesion molecule 4) | SID135620808 | 0.77 | 0.49 | 0.64 |
| MC2R (melanocortin 2 receptor) | SID135621047 | 0.75 | 0.76 | 1.02 |
| CPAP (centrosome assembly and centriole elongation protein) | SID152150476 | 0.98 | 0.49 | 0.5 |
| ELMOD2 (ELMO domain containing 2) | SID134320114 | 1.03 | 0.74 | 0.72 |
| TMPRSS12 (transmembrane serine protease 12) | SID152149425 | 0.91 | 0.95 | 1.04 |
| ITGA2 (integrin subunit alpha 2) | SID152150596 | 0.86 | 0.67 | 0.78 |
| MXRA7 (matrix remodeling associated 7) | SID152153262 | 1.08 | 0.57 | 0.53 |
